Publication PMC5173319, “Crenactin forms actin-like double helical filaments regulated by arcadin-2” (eLife, 2016)
No constants are given. Whether binding was seen depends on the method and setting.

By UniProt entry, the sequences of proteins in these tests, tags left out.
UniProt A3MWN5: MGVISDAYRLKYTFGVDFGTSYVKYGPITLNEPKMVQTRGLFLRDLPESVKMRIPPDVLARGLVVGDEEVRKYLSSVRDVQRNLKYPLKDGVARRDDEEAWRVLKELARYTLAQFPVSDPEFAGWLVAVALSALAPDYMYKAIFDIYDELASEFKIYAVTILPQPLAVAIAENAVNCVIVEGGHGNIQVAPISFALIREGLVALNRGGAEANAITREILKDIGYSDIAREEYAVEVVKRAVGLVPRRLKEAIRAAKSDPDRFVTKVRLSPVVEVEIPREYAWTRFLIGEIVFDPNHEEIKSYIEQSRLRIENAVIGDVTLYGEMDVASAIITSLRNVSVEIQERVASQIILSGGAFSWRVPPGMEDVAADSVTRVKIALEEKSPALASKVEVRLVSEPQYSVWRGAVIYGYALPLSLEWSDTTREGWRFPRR

Molecular target: Pyrobaculum calidifontis crenactin (Pyrobaculum calidifontis) (UniProt A3MWN5)
Test: condition: only with 2 µM arcadin-2 C-terminal peptide; AUC; velocity sedimentation, 2 µM crenactin with 2 µM arcadin-2 C-terminal peptide, 50,000 rpm, 20°C, PBS; both purified

For “Pyrobaculum calidifontis crenactin (from UniProt A3MWN5 1-432)”, the binding was “no binding”.
